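An ATP-based luminescent cell-survival readout in CHO cells carrying a doxycycline-inducible RORgamma, read at 16 h.
A concentration series, mostly reaching 92.4 µM.
The number is the fitted potency (AC50, nM) for cell killing; lower values mean stronger cytotoxic potency.
Calls come from the fitted dose curve; inconclusive means weak or mixed curves, or an effect in the opposite direction.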

Values are in nM.
Every entry below has the call inconclusive.
These entries are mostly ones the record files as inconclusive; other results of the assay are not listed here.
A potency from a partial, single-point or poor curve is only a rough figure.
Some entries filed as inconclusive have a full curve.

SMILES	Potency (nM)	curve
CCCCCCCCCCCCCCCCCCNC(=O)OC1CCN(C(=O)OC[C@H](COC(=O)N(Cc2cccc[n+]2CC)C(=O)c2ccccc2OC)OC)CC1	33491	cytotoxic
c1ccc(-c2ccc(C(c3ccccc3)n3ccnc3)cc2)cc1 (stereo not drawn)	29849	cytotoxic, partial curve
CCCCCCCCCCOCC(O)CN (stereo not drawn)	29849	cytotoxic, partial curve, poor fit
C=CC(=O)OCC(CO)(COCC(COC(=O)C=C)(COC(=O)C=C)COC(=O)C=C)COC(=O)C=C	1074	cytotoxic, full curve, poor fit
CCC(C)(C)c1ccc(CC(C)CN2C[C@@H](C)O[C@@H](C)C2)cc1 (stereo partly drawn)	29849	cytotoxic, partial curve, poor fit
Cc1cccc(C)c1NC(=O)CN1CCN(CCCC(c2ccc(F)cc2)c2ccc(F)cc2)CC1	29849	cytotoxic
Nc1ccc(N)c2ccccc12	68519	cytotoxic, single point
CCCOc1sc(C(=O)N2CCC(c3cc(CN)ccc3F)CC2)c(C)c1Br	62841	cytotoxic
CCCCc1oc2ccccc2c1C(=O)c1cc(I)c(OCCN(CC)CC)c(I)c1	33491	cytotoxic, single point
O[C@@H](c1cc(C(F)(F)F)nc2c(C(F)(F)F)cccc12)[C@H]1CCCCN1	33491	cytotoxic, single point
CCCSS/C(CCO)=C(\C)N(C=O)Cc1cnc(C)nc1N	33491	cytotoxic, single point
C=CC(=O)OCCC#N	69008	cytotoxic, single point
CCO[C@@H]1O[C@H](C(COCc2ccccc2)OCc2ccccc2)[C@H](OCc2ccccc2)[C@H]1O (stereo partly drawn)	29849	cytotoxic, single point
O=C(c1cc(O)c(O)c(O)c1)c1ccc(O)c(O)c1O	27306	cytotoxic, partial curve, poor fit
CCCCCCCCCCCC(=O)NCCCN(C)C	68589	cytotoxic
CCN(CC)c1ccc(N)cc1	55982	cytotoxic, partial curve
CCCCCCCCCCCCN1CCCC1=O	68589	cytotoxic, single point
COc1ccc(-c2coc3cc(O)ccc3c2=O)cc1	12197	cytotoxic, partial curve
Cc1ccc(O)c(O)c1	59394	cytotoxic, single point
CC1=C(/C=C/C(C)=C/C=C/C(C)=C\C(=O)O)C(C)(C)CCC1	68798	cytotoxic, single point
C=CC(=O)Nc1cc2c(Nc3ccc(F)c(Cl)c3)ncnc2cc1OCCCN1CCOCC1	23710	cytotoxic, partial curve
Cc1cccc(N(C)C(=S)Oc2ccc3ccccc3c2)c1	17228	cytotoxic, partial curve, poor fit
COC1=C(OC)C(=O)C(CCCCCCCCCCO)=C(C)C1=O	29849	cytotoxic, partial curve, poor fit
Nc1ccc2c(c1)CN1C(=O)c3ccccc3C1=N2	10318	cytotoxic
O=C(Cl)c1c(Cl)c(Cl)c(C(=O)Cl)c(Cl)c1Cl	61130	cytotoxic, single point
COc1ccccc1OCCNCC(O)COc1cccc2[nH]c3ccccc3c12 (stereo not drawn)	29849	cytotoxic, single point
C[C@]12CC[C@@H]3c4ccc(O)cc4CC[C@H]3[C@@H]1CC[C@@H]2OC(=O)CCC1CCCC1	33491	cytotoxic, single point
Nc1cc(Cl)c(O)c(Cl)c1	68589	cytotoxic, partial curve, poor fit
CC(Cc1ccc(O)c(O)c1)C(C)Cc1ccc(O)c(O)c1 (stereo not drawn)	15355	cytotoxic, partial curve
NC(=O)C1(N2CCCCC2)CCN(CCCN2c3ccccc3CCc3ccc(Cl)cc32)CC1	33491	cytotoxic, single point
CN[C@H]1CC[C@@H](c2ccc(Cl)c(Cl)c2)c2ccc(S(N)(=O)=O)cc21	68589	cytotoxic, single point
CC(C)CCCCCCc1ccc(O)cc1	68589	cytotoxic, single point
O=C1CCCCCCCCCCCCCC1	54482	cytotoxic, partial curve, poor fit
CC(C)(c1cc(Br)c(O)c(Br)c1)c1cc(Br)c(O)c(Br)c1	51559	cytotoxic, partial curve
CCCCCCOC(=O)c1ccc(O)cc1	34376	cytotoxic, partial curve, poor fit
CC(C)(C)c1ccc(O)c(O)c1	54482	cytotoxic
CC(=O)Nc1ccc(C(=O)O)cc1	12135	cytotoxic, partial curve, poor fit
Clc1ccc(C(Cn2ccnc2)OCc2c(Cl)cccc2Cl)c(Cl)c1 (stereo not drawn)	29849	cytotoxic, single point
Cc1ccc(-n2[nH]c(C)c(N=Nc3cccc(-c4cccc(C(=O)O)c4)c3O)c2=O)cc1C	33491	cytotoxic, partial curve, poor fit
CC(C)(C)c1ccc(O)c(C(C)(C)C)c1	68589	cytotoxic, single point
CC[C@H]1O[C@]2(CC[C@@H]1C)C[C@@H]1C[C@@H](C/C=C(\C)C[C@@H](C)/C=C/C=C3\CO[C@@H]4[C@H](O)C(C)=C[C@@H](C(=O)O1)[C@]34O)O2	67962	cytotoxic
CC1(C)CCC[C@]2(C)[C@H]3CC(=O)O[C@]3(C)CC[C@@H]12	68589	cytotoxic, partial curve, poor fit
Cc1cc(Nc2ccc(O)cc2)ccc1N	34201	cytotoxic, partial curve
C[C@@H]1CC[C@H]2C(C)(C)[C@H]3C[C@@]12CC[C@@]3(C)O	54371	cytotoxic, partial curve, poor fit
c1ccc2c(c1)CCc1ccccc1N2	68938	cytotoxic, partial curve, poor fit
CC(O)CO (stereo not drawn)	67.5	cytotoxic, full curve, poor fit
O=Nc1ccc(NO)cc1	80021	cytotoxic, partial curve, poor fit
CC(NCCC(c1ccccc1)c1ccccc1)c1ccccc1 (stereo not drawn)	26603	cytotoxic
CCCCN(CCCC)CC(O)c1cc(Cl)cc2c1-c1ccc(Cl)cc1/C2=C/c1ccc(Cl)cc1 (stereo not drawn)	33491	cytotoxic, single point
NC(=O)n1c(O)c(C(=O)c2cccs2)c2cc(Cl)ccc21	29849	cytotoxic, partial curve, poor fit
Cc1ccc(S(=O)(=O)Oc2ccc(N=Nc3ccc(-c4ccc(N=Nc5c(O)ccc6cc(S(=O)(=O)O)cc(S(=O)(=O)O)c56)c(C)c4)cc3C)cc2)cc1	19409	cytotoxic, full curve
O=C(Nc1ccc(Cl)cc1)Nc1ccc(Cl)c(Cl)c1	10590	cytotoxic, full curve
CCCCCCC(C)OC(=O)COc1nc(F)c(Cl)c(N)c1Cl (stereo not drawn)	68589	cytotoxic, single point
CCOc1ccc([N+](=O)[O-])cc1	62001	cytotoxic
C[C@@H](CN(C)C)CN1c2ccccc2Sc2ccccc21	33491	cytotoxic, partial curve, poor fit
CCCCCCCCCCCCOC(=O)c1ccc(O)cc1	54870	cytotoxic, partial curve
CCc1c(C(=O)NN2CCCCC2)nn(-c2ccc(Cl)cc2Cl)c1-c1ccc(Br)cc1	48557	cytotoxic, partial curve
CC(C)c1ccc(O)c(C(C)C)c1	61130	cytotoxic, partial curve, poor fit
CCCCCCCC/C=C\CCCCCCCC(=O)N(CCO)CCO	34236	cytotoxic, partial curve, poor fit
CCCCCCCC/C=C\CCCCCCCCOCCO	79445	cytotoxic

Repeated from the top, 5 entries:

| SMILES | Potency (nM) | curve |
|---|---|---|
| `CCCCCCCCCCCCCCCCCCNC(=O)OC1CCN(C(=O)OC[C@H](COC(=O)N(Cc2cccc[n+]2CC)C(=O)c2ccccc2OC)OC)CC1` | 33491 | cytotoxic |
| `c1ccc(-c2ccc(C(c3ccccc3)n3ccnc3)cc2)cc1` (stereo not drawn) | 29849 | cytotoxic, partial curve |
| `CCCCCCCCCCOCC(O)CN` (stereo not drawn) | 29849 | cytotoxic, partial curve, poor fit |
| `C=CC(=O)OCC(CO)(COCC(COC(=O)C=C)(COC(=O)C=C)COC(=O)C=C)COC(=O)C=C` | 1074 | cytotoxic, full curve, poor fit |
| `CCC(C)(C)c1ccc(CC(C)CN2C[C@@H](C)O[C@@H](C)C2)cc1` (stereo partly drawn) | 29849 | cytotoxic, partial curve, poor fit |

Source: PubChem BioAssay AID1159520 (Tox21, 2015).